Results of single-concentration screens

Protein sequences, listed by entry. Tags and fused reporters are not part of them. Residues count along the entry.
UniProt P9WNZ1, whole entry: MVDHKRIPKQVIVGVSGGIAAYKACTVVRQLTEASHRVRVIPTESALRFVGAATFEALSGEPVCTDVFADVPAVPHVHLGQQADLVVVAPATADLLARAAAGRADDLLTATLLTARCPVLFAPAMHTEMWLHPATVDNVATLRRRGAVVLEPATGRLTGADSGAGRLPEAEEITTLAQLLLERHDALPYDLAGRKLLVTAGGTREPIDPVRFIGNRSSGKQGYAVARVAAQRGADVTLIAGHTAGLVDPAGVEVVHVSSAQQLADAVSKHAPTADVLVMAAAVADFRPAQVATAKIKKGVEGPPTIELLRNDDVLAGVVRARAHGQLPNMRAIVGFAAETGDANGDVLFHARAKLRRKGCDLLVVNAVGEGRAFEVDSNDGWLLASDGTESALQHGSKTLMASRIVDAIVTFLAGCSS
UniProt Q4DA54, 1-478: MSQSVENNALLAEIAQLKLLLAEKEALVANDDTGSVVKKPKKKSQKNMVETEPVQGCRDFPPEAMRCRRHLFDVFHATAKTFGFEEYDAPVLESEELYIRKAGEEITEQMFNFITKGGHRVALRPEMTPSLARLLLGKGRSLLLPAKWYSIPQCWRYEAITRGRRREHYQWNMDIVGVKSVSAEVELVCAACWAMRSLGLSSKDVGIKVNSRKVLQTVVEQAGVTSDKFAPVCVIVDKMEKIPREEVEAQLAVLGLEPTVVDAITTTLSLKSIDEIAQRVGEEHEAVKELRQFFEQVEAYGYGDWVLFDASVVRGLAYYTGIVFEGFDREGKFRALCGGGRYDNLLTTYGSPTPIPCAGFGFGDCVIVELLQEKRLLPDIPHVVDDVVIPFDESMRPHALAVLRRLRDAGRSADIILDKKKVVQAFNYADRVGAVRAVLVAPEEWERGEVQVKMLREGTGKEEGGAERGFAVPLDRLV

Measurements from “University of Dundee, Small-Polar-MMV Screening Library” (2021), ChEMBL document CHEMBL3988442.

CoaBC: 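Coenzyme A biosynthesis protein CoaBC, Mycobacterium tuberculosis (UniProt P9WNZ1). Enzyme assay of CoaBC with a phosphate dye (Biomol Green) read at 650 nm. Concentration: 30 µM. Higher reads as stronger inhibition, judged from the few compounds that gave an IC50. Most strong results did not repeat in a second test. About 67,000 compounds were tested under these conditions; 0.06% (about 40) showed 50% or more at least once.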
TcHisRS: 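Histidine-tRNA ligase, Trypanosoma cruzi CL Brener (UniProt Q4DA54). Enzyme assay of histidyl-tRNA synthetase; the read-out is not stated. Compounds at 30 µM. The record gives no direction; compounds that gave an IC50 in retests scored well above the rest, so higher reads as stronger inhibition. About 69,000 compounds were tested under these conditions; 0.045% (about 31) showed 50% or more at least once.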

Results are given as percent effect.
How 0% and 100% were set is not recorded. Most values in the screen are low, and negative values occur.
This is an unselected part of the compounds tested.

| # | compound | CoaBC | TcHisRS |
|---|---|---|---|
| 1 | `Cc1ncsc1C(=O)NC1CCN(Cc2ccc(C#N)cc2)CC1` | -2.169 | 1.527 |
| 2 | `Cc1cc(C)n(CC2CN(CC(=O)Nc3nncs3)CCO2)n1` (stereo not shown) | -0.241 | 3.053 |
| 3 | `CCOCc1ccc(NCc2cnc(N3CCN(C)CC3)nc2)cc1` | 5.578 | 2.105 |
| 4 | `CC(NC(=O)NCCCN(C)S(C)(=O)=O)c1ccc(Cl)cc1` (stereo not shown) | 4.198 | 3.38 |
| 5 | `CC(c1nc(C2CC2)no1)N1CCN(Cc2ccccc2F)CC1` (stereo not shown) | 10.7 | -1.88 |
| 6 | `O=S(=O)(c1c(F)cccc1F)N1CCCC1c1nnc2n1CCCCC2` (stereo not shown) | 1.018 | 9.639 |
| 7 | `CC(=O)N1CCC(NC(=O)c2cc(Cl)ccc2-n2cnnn2)CC1` | 4.637 | 0 |
| 8 | `CCc1cnc(N2CCC(=O)N(CC3CC3)C(C(C)C)C2)nc1` (stereo not shown) | -8.316 | 4.167 |
| 9 | `CC1CCCN(C(=O)NCCCn2cncn2)C1` (stereo not shown) | 4.943 | 8.284 |
| 10 | `O=S(=O)(Cc1ccccc1)NCCc1nnc2n1CCC2` | 1.266 | 6.098 |
| 11 | `Clc1cccc(-n2cnnn2)c1N1CCOCC1` | 2.336 | 2.212 |
| 12 | `Cn1cc2c(n1)C(CNCc1ccco1)OCC2` (stereo not shown) | 2.469 | 1.869 |
| 13 | `CCc1ccc(CN(Cc2ccco2)C(C)C(C)C)nc1` (stereo not shown) | 6.489 | 9.135 |
| 14 | `O=C(NCc1ccccc1CN1CCCCCC1)Nc1nncs1` | 0.1965 | 12.07 |
| 15 | `COCCn1ccc2c(C(=O)NC(C)C)cccc21` | 5.696 | 6.211 |
| 16 | `O=C(c1ccncc1)N1CCCn2c(CN3CCCCC3)nnc2C1` | 2.591 | 4.918 |
| 17 | `COc1ccc(CCC(=O)NCc2cc(C)on2)cc1` | 11.21 | -3.093 |
| 18 | `CNc1ncc(-c2ccc(NC(=O)[C@@H]3CCCCN3)cc2)cn1` | 1.566 | 10.17 |
| 19 | `COc1cccc([C@H]2CN(C(=O)c3noc4c3CCCC4)C[C@@H]2N)c1` | 5.839 | 4.831 |
| 20 | `O=C(c1ccnnc1)N1C[C@H]2CN(Cc3cccc(F)c3)C(=O)[C@H]2C1` | 5.071 | 10.92 |
| 21 | `Cc1n[nH]c(C)c1C1CCCN1C(=O)c1cc(Br)c[nH]1` (stereo not shown) | 10.26 | -0.5405 |
| 22 | `Cc1ccc(NC(=O)NC(C)Cn2cccn2)cc1` (stereo not shown) | 3.353 | 3.175 |
| 23 | `CCC(NC(=O)C1CCN(S(C)(=O)=O)CC1)c1ccc(C)cc1C` (stereo not shown) | -1.269 | 0.4484 |
| 24 | `CCN(CC)c1ccc(C(=O)NCC2(C(N)=O)CCOCC2)cn1` | 3.509 | 2.941 |
| 25 | `O=C(c1ccc2ncsc2c1)N1CCC(C(=O)O)(n2cccn2)CC1` | 5.495 | 4.124 |
| 26 | `NC(=O)c1cnc2n1CCN(C(=O)c1ccc(Cn3cccc3)cc1)C2` | 5.593 | 22.68 |
| 27 | `O=C(Nc1cnn(C2CCOCC2)c1)c1ccc2c(c1)OCO2` | 3.69 | 5.288 |
| 28 | `CN1CCN(C(=O)Cn2nc(C(F)(F)F)c(Br)c2C2CC2)CC1` | -0.9639 | 32.67 |
| 29 | `NC(=O)NCC(=O)N1CCC2(CC1)c1ccccc1CC2O` (stereo not shown) | 0.8444 | 0.5025 |
| 30 | `O=C(NCCc1cc2nc(-c3ccncc3)ccn2n1)C1CC1` | -11.1 | -3.03 |
| 31 | `Cc1ccc(C2CSCCN2CCS(C)(=O)=O)cc1` (stereo not shown) | 0.1229 | -1.19 |
| 32 | `COc1ccccc1C(=O)N1CCOC2(CCCN(C(C)=O)C2)C1` (stereo not shown) | 1.75 | 2.941 |
| 33 | `Cc1cccc(CN2C[C@@H]3CN(C(=O)[C@H]4CCCO4)C[C@@H]3C2=O)c1` | 4.111 | 1.504 |
| 34 | `CC(C)c1nc(-c2cc(C(=O)N3CCN(C)CC3)c3ccccn23)cs1` | -6.352 | 4.598 |
| 35 | `O=C([C@H]1CCCO1)N1CC[C@H](O)[C@@H]1Cc1ccncc1` | 2.408 | 2.174 |
| 36 | `N#Cc1ccccc1C(=O)NCCC1CN(Cc2ccco2)CCO1` (stereo not shown) | 5.455 | 10 |
| 37 | `CC(C)C(=O)Nc1cccc(C(=O)Nc2ccccn2)c1` | 7.031 | -1.554 |
| 38 | `COc1cccn(CC(=O)N(C)CCCOc2c(C)cccc2C)c1=O` | 5.854 | -4.902 |
| 39 | `O=C(O)[C@]12CCCN(Cc3cccnc3)[C@@H]1CCN(c1cnccn1)C2` | 2.057 | 4.469 |
| 40 | `Cc1cnn(C2CCCN(C(=O)CCc3ccncc3)C2)c1` (stereo not shown) | -4.386 | 7.558 |
| 41 | `N#Cc1cccc(CN2C[C@@H](NC(=O)C3CC3)[C@H]3OCCC[C@H]32)c1` | 5.647 | 0.4808 |
| 42 | `CC(=O)N[C@@H]1CN(C(=O)CC2CCOCC2)C[C@H]1O` | 10.49 | 7.895 |
| 43 | `Cc1nc(CN2CCOC(CNc3cccnn3)C2)oc1C` (stereo not shown) | -2.728 | 9.774 |
| 44 | `c1cncc(CN2CCO[C@@H]3CN(Cc4ccoc4)CC[C@@H]3C2)c1` | 3.299 | 7.882 |
| 45 | `CC(C)CN1CC[C@@H]2[C@@H]1CCN2S(=O)(=O)c1cn(C)cn1` | 4.684 | 4.598 |
| 46 | `Cc1cccc(C(=O)NC2CCN(c3cnn(C)c3)C2=O)c1C` (stereo not shown) | 3.433 | 4.651 |

Repeated from the top, 5 entries:

compound,CoaBC,TcHisRS
Cc1ncsc1C(=O)NC1CCN(Cc2ccc(C#N)cc2)CC1,-2.169,1.527
Cc1cc(C)n(CC2CN(CC(=O)Nc3nncs3)CCO2)n1 (stereo not shown),-0.241,3.053
CCOCc1ccc(NCc2cnc(N3CCN(C)CC3)nc2)cc1,5.578,2.105
CC(NC(=O)NCCCN(C)S(C)(=O)=O)c1ccc(Cl)cc1 (stereo not shown),4.198,3.38
CC(c1nc(C2CC2)no1)N1CCN(Cc2ccccc2F)CC1 (stereo not shown),10.7,-1.88